Assay results taken from patent US20250074957A1.
These are yes or no findings as the source states them, for the method shown. Some results given as binding are weak or reduced against the parent protein; the word gives no strength.

Key:
[1] = molecular target: FMC63-CD28-IKZF3 (HaloTag fusion for BRET); assay: NanoBRET in 293T cells with pomalidomide
[2] = molecular target: FMC63-CD28-IKZF3 (HaloTag fusion for BRET); assay: NanoBRET (constructs used in FIG. 2 and FIG. 3)
[3] = molecular target: FMC63-CD28-IKZF3 (HaloTag fusion for BRET); assay: NanoBRET in 293T cells, 10 µM MG132, 2 hours of drug treatment

Measured: binding

B1: Split CAR component 3 (BRET) (protein, not shown: large carriers)
chain: ERRAEVPTAHPSPSPRPAGQFQTLVVGVVGGLLGSLVLLVWVLAVICSRAARGTIGARRTGQPLKEDPSAVPVFSVDFGELDFQWREKTPEPPVPCVPEQTEFATIVFPSGMGTSSPARRGSADGPRSAQPLRPEDGHCSWPLGGGGSAGEGDQQDAAHNMGNHLPLLPESEEEDEMEVEDQDSKEAKKPNIINFDTSLPTSHTYLGADMEEFHGRTLHDDDSCQVIPVLPQVMMILIPGQTLPLQLFHPQEVSMVRNLIQKDRTFAVLAYSNVQEREAQFGTTAEIYAYREEQDFGIEIVKVKAIGRQRFKVLELRTQSDGIQQAKVQILPECVLPSTYDAETLMDRIKKQLREWDENLKDDSLPSNPIDFSYRVAACLPIDDVLRIQLLKIGSAIQRLRCELDIMNKCTSLCCKQCQETEITTKNEIFSLSLCGPMAAYVNPHGYVHETLTVYKACNLNLIGRPSTEHSWFPGYAWTVAQCKICASHIGWKFTATKKDMSPQKFWGLTRSALLPTIPDTEDEISPDKVILCL
binds: [1] | [2] | [3]
